Measured data: PubChem BioAssay AID1159578 (Peter MacCallum Cancer Centre, 2015)
Purpose: 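siRNA pools altering how lymphatic endothelial cells close a scratch wound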 (primary screen). System: human lymphatic endothelial cells. Reagent: siRNA pool against human genes, 40 nM. Time to read-out: 48 h after transfection. Read-out: 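High-content imaging of dye-stained cells in a scratch assay measures filled wound area and nuclei per well; duplicate means given as ratio to mock and robust z-score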. Reading the numbers: migration robust z-score: higher = faster migration into the scratch; migration relative to mock: higher = more scratch area covered than mock; nuclei per well: higher = more cells in the well. Call rule: 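Pools averaging fewer than 3300 nuclei are never called; remaining pools count as changed when migration robust z lies outside -2 to 2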. Calls: active = migration changed; inactive = no migration change, or too few cells.
The whole screen tested about 18,000 reagents; this is an unselected part. About 1,030 of all reagents (5.7%) were called active. 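Inactive calls also include pools with fewer than 3300 nuclei, whose migration was not assessed.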 Raw values vary from plate to plate and are shown uncorrected. Unmarked entries are inactive.

| target | PubChem SID | migration robust z-score | migration class with cell-count check | migration relative to mock | nuclei per well, duplicate mean |
| --- | --- | --- | --- | --- | --- |
| OR8B2 (GeneID 26595) | SID255356828 | -0.84 | migration z between -2 and 2; enough cells | 0.66 | 5960 |
| LMOD1 (GeneID 25802) | SID255356471 | -0.5 | migration z between -2 and 2; enough cells | 0.76 | 4806 |
| CABLES1 (GeneID 91768) | SID255361952 | -0.49 | migration z between -2 and 2; enough cells | 0.76 | 4863 |
| TLE1 (GeneID 7088) | SID255352880 | -0.05 | migration z between -2 and 2; enough cells | 0.8 | 5065 |
| PCDH19 (GeneID 57526) | SID255359442 | -0.4 | migration z between -2 and 2; enough cells | 0.78 | 5156 |
| CACNG5 (GeneID 27091) | SID255356912 | 0.16 | migration z between -2 and 2; enough cells | 0.84 | 6778 |
| ADAM9 (GeneID 8754) | SID255353790 | 0.83 | migration z between -2 and 2; enough cells | 0.96 | 6762 |
| IL17RA (GeneID 23765) | SID255356423 | -1.68 | migration z between -2 and 2; enough cells | 0.48 | 4672 |
| CWF19L2 (GeneID 143884) | SID255363199 | -0.95 | migration z between -2 and 2; enough cells | 0.64 | 5412 |
| ZNF394 (GeneID 84124) | SID255361202 | 1.33 | migration z between -2 and 2; enough cells | 1.23 | 5740 |
| PCDHGA7 (GeneID 56108) | SID255359000 | -0.66 | migration z between -2 and 2; enough cells | 0.72 | 5594 |
| CHURC1 (GeneID 91612) | SID255361932 | 0.6 | migration z between -2 and 2; enough cells | 1.04 | 5808 |
| ERICH5 (GeneID 203111) | SID255364117 | 0.26 | migration z between -2 and 2; enough cells | 0.95 | 6359 |
| TMCO1 (GeneID 54499) | SID255358046 | 1.65 | migration z between -2 and 2; enough cells | 1.31 | 5577 |
| NEK4 (GeneID 6787) | SID255352675 | -1.04 | migration z between -2 and 2; enough cells | 0.6 | 7861 |
| AQP8 (GeneID 343) | SID255348350 | 1.01 | migration z between -2 and 2; enough cells | 1 | 4914 |
| SEMA4D (GeneID 10507) | SID255355137 | -0.13 | migration z between -2 and 2; enough cells | 0.85 | 4328 |
| SEMA4D (GeneID 10507) | SID255365262 | 0.23 | migration z between -2 and 2; enough cells | 0.94 | 5826 |
| OR4F17 (GeneID 81099) | SID255360853 | -0.04 | migration z between -2 and 2; enough cells | 0.88 | 7012 |
| RPL23A (GeneID 6147) | SID255352180 | -2.77 | under 3300 nuclei; migration not judged | 0.17 | 2904 |
| SPDYC (GeneID 387778) | SID255365457 | 1.41 | migration z between -2 and 2; enough cells | 1.25 | 6936 |
| TECRL (GeneID 253017) | SID255364412 | 0.71 | migration z between -2 and 2; enough cells | 1.07 | 5799 |
| LIPI (GeneID 149998) | SID255363435 | 1.38 | migration z between -2 and 2; enough cells | 1.07 | 5540 |
| LRRC31 (GeneID 79782) | SID255360460 | 0.68 | migration z between -2 and 2; enough cells | 1.06 | 5187 |
| RGS19 (GeneID 10287) | SID255354968 | -1.46 | migration z between -2 and 2; enough cells | 0.52 | 6257 |
| ZNF254 (GeneID 9534) | SID255354353 | 1.34 | migration z between -2 and 2; enough cells | 1.23 | 5656 |
| ROR1 (GeneID 4919) | SID255351316 | -0.24 | migration z between -2 and 2; enough cells | 0.76 | 4974 |
| PGAM5 (GeneID 192111) | SID255363943 | -6.2 (active) | migration z below -2; enough cells | -0.39 | 3378 |
| LMX1B (GeneID 4010) | SID255350781 | -1.19 | migration z between -2 and 2; enough cells | 0.57 | 4804 |
| JMJD6 (GeneID 23210) | SID255356073 | -0.57 | migration z between -2 and 2; enough cells | 0.7 | 5534 |
| OR5D14 (GeneID 219436) | SID255364165 | 1.08 | migration z between -2 and 2; enough cells | 1.16 | 6394 |

Sorted by “nuclei per well, duplicate mean” (lowest first): 8 of the entries above
| target | PubChem SID | migration robust z-score | migration class with cell-count check | migration relative to mock | nuclei per well, duplicate mean |
| --- | --- | --- | --- | --- | --- |
| RPL23A (GeneID 6147) | SID255352180 | -2.77 | under 3300 nuclei; migration not judged | 0.17 | 2904 |
| SEMA4D (GeneID 10507) | SID255355137 | -0.13 | migration z between -2 and 2; enough cells | 0.85 | 4328 |
| AQP8 (GeneID 343) | SID255348350 | 1.01 | migration z between -2 and 2; enough cells | 1 | 4914 |
| TMCO1 (GeneID 54499) | SID255358046 | 1.65 | migration z between -2 and 2; enough cells | 1.31 | 5577 |
| SEMA4D (GeneID 10507) | SID255365262 | 0.23 | migration z between -2 and 2; enough cells | 0.94 | 5826 |
| ERICH5 (GeneID 203111) | SID255364117 | 0.26 | migration z between -2 and 2; enough cells | 0.95 | 6359 |
| OR4F17 (GeneID 81099) | SID255360853 | -0.04 | migration z between -2 and 2; enough cells | 0.88 | 7012 |
| NEK4 (GeneID 6787) | SID255352675 | -1.04 | migration z between -2 and 2; enough cells | 0.6 | 7861 |

The listing continues:
| target | PubChem SID | migration robust z-score | migration class with cell-count check | migration relative to mock | nuclei per well, duplicate mean |
| --- | --- | --- | --- | --- | --- |
| AGO1 (GeneID 26523) | SID255356804 | -0.21 | migration z between -2 and 2; enough cells | 0.76 | 5696 |
| SPIRE2 (GeneID 84501) | SID255361384 | 0.38 | migration z between -2 and 2; enough cells | 0.98 | 5248 |
| ADAM17 (GeneID 6868) | SID255352725 | 1.5 | migration z between -2 and 2; enough cells | 1.1 | 5654 |
| ERCC1 (GeneID 2067) | SID255349544 | 0.31 | migration z between -2 and 2; enough cells | 0.86 | 4372 |
| ARSL (GeneID 415) | SID255348411 | 1.35 | migration z between -2 and 2; enough cells | 1.06 | 5136 |
| HCRTR1 (GeneID 3061) | SID255350161 | -0.2 | migration z between -2 and 2; enough cells | 0.76 | 5984 |
| KARS1 (GeneID 3735) | SID255350584 | -0.57 | migration z between -2 and 2; enough cells | 0.7 | 5895 |
| TRIM8 (GeneID 81603) | SID255360911 | 0.72 | migration z between -2 and 2; enough cells | 0.94 | 4707 |
| DDX1 (GeneID 1653) | SID255349268 | -0.39 | migration z between -2 and 2; enough cells | 0.73 | 4904 |
| NARS1 (GeneID 4677) | SID255351143 | 0.42 | migration z between -2 and 2; enough cells | 0.88 | 5415 |
| PAQR6 (GeneID 79957) | SID255360592 | -0.44 | migration z between -2 and 2; enough cells | 0.78 | 5444 |
| PROKR2 (GeneID 128674) | SID255362810 | 0.06 | migration z between -2 and 2; enough cells | 0.82 | 6805 |
| CHRM5 (GeneID 1133) | SID255348917 | -0.52 | migration z between -2 and 2; enough cells | 0.7 | 6694 |
| MVB12B (GeneID 89853) | SID255361749 | 0.94 | migration z between -2 and 2; enough cells | 1.14 | 5242 |
| LHFPL3 (GeneID 375612) | SID255365380 | 0.16 | migration z between -2 and 2; enough cells | 0.92 | 5192 |
| CPNE3 (GeneID 8895) | SID255353902 | -0.26 | migration z between -2 and 2; enough cells | 0.76 | 4711 |
| CKAP4 (GeneID 10970) | SID255355489 | 1.38 | migration z between -2 and 2; enough cells | 1.25 | 3464 |
| SMIM7 (GeneID 79086) | SID255360208 | -0.19 | migration z between -2 and 2; enough cells | 0.84 | 6998 |
| ZNF740 (GeneID 283337) | SID255364664 | -1.31 | migration z between -2 and 2; enough cells | 0.55 | 5714 |
| HYI (GeneID 81888) | SID255360974 | 0.08 | migration z between -2 and 2; enough cells | 0.82 | 5835 |
| USP11 (GeneID 8237) | SID255353433 | 0.91 | migration z between -2 and 2; enough cells | 0.98 | 5336 |
| TMEM167B (GeneID 56900) | SID255359149 | -0.12 | migration z between -2 and 2; enough cells | 0.85 | 6072 |
| SLC30A5 (GeneID 64924) | SID255360050 | 0.1 | migration z between -2 and 2; enough cells | 0.82 | 5198 |
| TIMM50 (GeneID 92609) | SID255362021 | -0.34 | migration z between -2 and 2; enough cells | 0.74 | 6650 |
| ODAD3 (GeneID 115948) | SID255362337 | -0.36 | migration z between -2 and 2; enough cells | 0.8 | 5898 |
| A2ML1 (GeneID 144568) | SID255363228 | 0.24 | migration z between -2 and 2; enough cells | 0.94 | 5554 |
| SP2 (GeneID 6668) | SID255352582 | 0.9 | migration z between -2 and 2; enough cells | 0.98 | 5606 |
| ATN1 (GeneID 1822) | SID255349373 | -1.12 | migration z between -2 and 2; enough cells | 0.59 | 6199 |
| SDCBP2 (GeneID 27111) | SID255356924 | 1.03 | migration z between -2 and 2; enough cells | 1.16 | 4919 |
| DRD3 (GeneID 1814) | SID255349367 | 0.96 | migration z between -2 and 2; enough cells | 0.99 | 4420 |
| TCP10L3 (GeneID 6953) | SID255352795 | 0.4 | migration z between -2 and 2; enough cells | 0.99 | 6102 |
| CCDC187 (GeneID 399693) | SID255365721 | -0.05 | migration z between -2 and 2; enough cells | 0.88 | 4411 |
| BUD13 (GeneID 84811) | SID255361511 | 0.83 | migration z between -2 and 2; enough cells | 1.1 | 5939 |
| CMBL (GeneID 134147) | SID255362961 | 0.52 | migration z between -2 and 2; enough cells | 0.9 | 5237 |
| REG4 (GeneID 83998) | SID255361158 | -0.38 | migration z between -2 and 2; enough cells | 0.78 | 6113 |
| CCSER2 (GeneID 54462) | SID255358020 | 0.52 | migration z between -2 and 2; enough cells | 1.02 | 5636 |
| ITM2C (GeneID 81618) | SID255360923 | -1.54 | migration z between -2 and 2; enough cells | 0.48 | 4974 |
| SETD1A (GeneID 9739) | SID255354515 | 0.78 | migration z between -2 and 2; enough cells | 0.96 | 6246 |
| SAFB2 (GeneID 9667) | SID255354455 | -0.12 | migration z between -2 and 2; enough cells | 0.85 | 5126 |
| CCDC17 (GeneID 149483) | SID255363420 | -1.08 | migration z between -2 and 2; enough cells | 0.6 | 5944 |
| WDR74 (GeneID 54663) | SID255358118 | 0.21 | migration z between -2 and 2; enough cells | 0.94 | 6159 |
| CNOT6 (GeneID 57472) | SID255355777 | -0.96 | migration z between -2 and 2; enough cells | 0.64 | 4858 |
